Our source for the binding values is article PMC5263256.

Amino acid sequences for entries named in this document (tags omitted).
UniProt Q6P4S8: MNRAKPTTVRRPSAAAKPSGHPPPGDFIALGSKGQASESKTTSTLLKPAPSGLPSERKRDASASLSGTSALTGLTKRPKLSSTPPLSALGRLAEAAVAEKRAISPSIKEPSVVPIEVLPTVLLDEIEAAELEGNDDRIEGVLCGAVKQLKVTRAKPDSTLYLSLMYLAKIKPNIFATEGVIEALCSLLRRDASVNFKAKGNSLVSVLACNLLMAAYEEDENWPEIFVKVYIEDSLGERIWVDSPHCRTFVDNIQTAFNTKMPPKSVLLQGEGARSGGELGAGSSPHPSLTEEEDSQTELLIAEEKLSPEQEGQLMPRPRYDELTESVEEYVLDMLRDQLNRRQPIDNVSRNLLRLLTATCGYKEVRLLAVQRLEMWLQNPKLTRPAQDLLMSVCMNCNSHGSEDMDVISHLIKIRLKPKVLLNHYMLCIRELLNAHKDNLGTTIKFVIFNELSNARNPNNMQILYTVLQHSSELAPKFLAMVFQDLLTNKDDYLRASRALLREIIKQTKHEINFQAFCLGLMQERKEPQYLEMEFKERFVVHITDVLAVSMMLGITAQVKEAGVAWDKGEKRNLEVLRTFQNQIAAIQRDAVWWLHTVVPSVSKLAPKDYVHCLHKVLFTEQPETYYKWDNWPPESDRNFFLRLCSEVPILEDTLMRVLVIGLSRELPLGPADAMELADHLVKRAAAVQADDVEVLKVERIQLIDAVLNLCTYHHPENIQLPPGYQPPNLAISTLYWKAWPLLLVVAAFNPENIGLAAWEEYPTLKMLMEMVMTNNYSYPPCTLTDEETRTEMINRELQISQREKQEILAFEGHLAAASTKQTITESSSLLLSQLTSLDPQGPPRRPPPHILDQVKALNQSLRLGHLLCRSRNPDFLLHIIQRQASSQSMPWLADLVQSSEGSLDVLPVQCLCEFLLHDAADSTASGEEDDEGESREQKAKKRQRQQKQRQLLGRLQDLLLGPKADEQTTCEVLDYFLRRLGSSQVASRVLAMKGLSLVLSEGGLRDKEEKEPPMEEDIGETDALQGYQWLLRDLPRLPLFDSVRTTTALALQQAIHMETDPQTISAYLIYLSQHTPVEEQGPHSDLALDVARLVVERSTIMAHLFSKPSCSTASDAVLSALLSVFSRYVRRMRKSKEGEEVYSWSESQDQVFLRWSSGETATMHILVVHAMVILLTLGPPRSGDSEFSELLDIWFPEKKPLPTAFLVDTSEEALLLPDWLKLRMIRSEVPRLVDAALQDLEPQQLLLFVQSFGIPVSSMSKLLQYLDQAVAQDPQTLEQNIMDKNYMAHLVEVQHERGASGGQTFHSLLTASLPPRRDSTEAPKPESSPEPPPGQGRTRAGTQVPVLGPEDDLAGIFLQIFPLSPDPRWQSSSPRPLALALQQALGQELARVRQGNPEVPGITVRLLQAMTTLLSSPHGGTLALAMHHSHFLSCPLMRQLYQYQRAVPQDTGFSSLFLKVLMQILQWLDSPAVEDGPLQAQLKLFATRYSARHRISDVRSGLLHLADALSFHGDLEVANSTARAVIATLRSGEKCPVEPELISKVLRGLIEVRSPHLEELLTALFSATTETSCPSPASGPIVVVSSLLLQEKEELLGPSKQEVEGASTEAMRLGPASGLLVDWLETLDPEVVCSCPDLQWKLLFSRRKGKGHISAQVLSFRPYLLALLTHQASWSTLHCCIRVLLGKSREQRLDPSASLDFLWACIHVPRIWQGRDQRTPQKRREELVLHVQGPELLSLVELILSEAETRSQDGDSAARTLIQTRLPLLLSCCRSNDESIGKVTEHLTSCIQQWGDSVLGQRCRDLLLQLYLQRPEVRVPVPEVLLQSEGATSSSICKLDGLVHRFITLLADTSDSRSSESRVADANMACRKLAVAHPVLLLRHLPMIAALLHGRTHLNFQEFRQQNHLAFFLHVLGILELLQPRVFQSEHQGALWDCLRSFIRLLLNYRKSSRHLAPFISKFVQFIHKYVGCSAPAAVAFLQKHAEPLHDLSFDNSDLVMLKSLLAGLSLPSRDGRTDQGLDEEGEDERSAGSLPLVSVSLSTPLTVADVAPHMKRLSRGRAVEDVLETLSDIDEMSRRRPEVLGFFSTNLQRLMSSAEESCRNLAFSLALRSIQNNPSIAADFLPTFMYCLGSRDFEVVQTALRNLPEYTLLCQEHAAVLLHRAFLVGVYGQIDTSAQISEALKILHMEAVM
UniProt Q6KCD5: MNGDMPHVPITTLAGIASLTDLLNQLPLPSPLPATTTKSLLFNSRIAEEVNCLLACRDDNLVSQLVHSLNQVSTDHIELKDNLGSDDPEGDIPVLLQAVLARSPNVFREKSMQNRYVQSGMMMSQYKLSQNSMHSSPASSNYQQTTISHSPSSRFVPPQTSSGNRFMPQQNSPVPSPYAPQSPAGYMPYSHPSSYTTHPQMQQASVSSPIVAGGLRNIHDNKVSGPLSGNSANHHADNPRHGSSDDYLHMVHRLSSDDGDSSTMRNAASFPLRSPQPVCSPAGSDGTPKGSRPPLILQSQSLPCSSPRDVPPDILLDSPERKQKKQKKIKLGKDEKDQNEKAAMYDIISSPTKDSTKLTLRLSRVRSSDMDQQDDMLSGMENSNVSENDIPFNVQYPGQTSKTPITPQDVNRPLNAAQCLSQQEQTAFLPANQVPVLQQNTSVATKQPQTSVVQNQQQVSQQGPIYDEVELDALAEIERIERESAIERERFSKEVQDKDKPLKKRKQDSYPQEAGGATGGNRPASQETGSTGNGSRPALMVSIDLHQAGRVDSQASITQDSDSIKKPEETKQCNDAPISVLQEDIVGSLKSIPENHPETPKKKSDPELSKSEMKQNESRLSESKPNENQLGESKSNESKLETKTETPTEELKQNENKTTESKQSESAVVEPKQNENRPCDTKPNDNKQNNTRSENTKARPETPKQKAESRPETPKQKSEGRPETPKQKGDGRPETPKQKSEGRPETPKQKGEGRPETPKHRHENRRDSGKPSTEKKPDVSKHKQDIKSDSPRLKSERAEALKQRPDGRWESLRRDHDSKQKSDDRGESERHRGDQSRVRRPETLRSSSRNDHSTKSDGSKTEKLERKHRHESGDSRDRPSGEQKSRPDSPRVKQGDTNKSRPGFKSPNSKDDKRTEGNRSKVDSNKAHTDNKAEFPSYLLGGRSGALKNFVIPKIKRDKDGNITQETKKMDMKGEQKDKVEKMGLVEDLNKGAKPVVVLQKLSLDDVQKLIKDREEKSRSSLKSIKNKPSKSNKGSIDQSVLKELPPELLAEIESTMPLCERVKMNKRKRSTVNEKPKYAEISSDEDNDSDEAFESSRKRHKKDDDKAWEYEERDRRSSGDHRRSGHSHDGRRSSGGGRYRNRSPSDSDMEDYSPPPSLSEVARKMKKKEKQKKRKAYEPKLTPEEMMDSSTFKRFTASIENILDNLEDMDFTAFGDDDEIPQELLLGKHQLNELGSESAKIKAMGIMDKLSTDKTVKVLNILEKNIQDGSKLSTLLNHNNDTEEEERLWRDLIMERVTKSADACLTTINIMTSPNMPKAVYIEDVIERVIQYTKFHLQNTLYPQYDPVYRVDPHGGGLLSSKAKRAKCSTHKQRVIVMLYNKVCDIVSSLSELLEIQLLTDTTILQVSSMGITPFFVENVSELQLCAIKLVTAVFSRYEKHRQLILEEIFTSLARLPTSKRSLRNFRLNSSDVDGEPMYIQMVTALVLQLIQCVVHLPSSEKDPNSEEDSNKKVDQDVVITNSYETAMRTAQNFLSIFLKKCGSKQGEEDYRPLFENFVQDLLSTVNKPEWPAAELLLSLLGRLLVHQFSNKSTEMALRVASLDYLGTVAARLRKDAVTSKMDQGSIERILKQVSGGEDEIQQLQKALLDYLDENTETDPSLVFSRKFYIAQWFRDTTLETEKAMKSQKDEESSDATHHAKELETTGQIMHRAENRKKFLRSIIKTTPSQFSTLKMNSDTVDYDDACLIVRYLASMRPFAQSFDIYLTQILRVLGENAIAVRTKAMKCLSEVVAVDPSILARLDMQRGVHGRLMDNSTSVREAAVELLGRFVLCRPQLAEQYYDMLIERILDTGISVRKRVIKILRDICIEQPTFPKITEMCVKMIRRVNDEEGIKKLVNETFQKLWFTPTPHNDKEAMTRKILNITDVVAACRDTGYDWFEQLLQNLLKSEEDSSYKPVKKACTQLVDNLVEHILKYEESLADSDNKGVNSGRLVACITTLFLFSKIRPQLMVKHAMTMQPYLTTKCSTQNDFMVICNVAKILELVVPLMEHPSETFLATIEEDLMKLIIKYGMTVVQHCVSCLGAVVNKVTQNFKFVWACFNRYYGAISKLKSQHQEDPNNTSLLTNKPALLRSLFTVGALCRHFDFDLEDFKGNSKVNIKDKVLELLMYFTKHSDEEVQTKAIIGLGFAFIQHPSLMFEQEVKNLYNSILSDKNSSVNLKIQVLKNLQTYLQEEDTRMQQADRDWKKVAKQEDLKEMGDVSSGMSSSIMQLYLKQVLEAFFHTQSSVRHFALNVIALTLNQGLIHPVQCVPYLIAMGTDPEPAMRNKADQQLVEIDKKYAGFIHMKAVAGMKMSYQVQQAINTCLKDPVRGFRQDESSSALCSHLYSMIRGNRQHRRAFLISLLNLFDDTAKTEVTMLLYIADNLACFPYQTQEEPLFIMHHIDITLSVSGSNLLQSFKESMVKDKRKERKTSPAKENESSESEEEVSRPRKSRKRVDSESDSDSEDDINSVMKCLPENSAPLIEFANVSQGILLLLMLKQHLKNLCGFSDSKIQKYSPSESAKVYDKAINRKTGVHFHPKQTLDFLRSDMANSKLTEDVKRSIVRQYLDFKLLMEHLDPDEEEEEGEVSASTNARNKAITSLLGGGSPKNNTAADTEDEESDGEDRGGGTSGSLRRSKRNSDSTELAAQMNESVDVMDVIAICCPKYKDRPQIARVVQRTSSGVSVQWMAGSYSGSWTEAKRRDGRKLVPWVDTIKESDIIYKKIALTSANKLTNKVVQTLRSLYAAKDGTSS
UniProt Q9CWS4: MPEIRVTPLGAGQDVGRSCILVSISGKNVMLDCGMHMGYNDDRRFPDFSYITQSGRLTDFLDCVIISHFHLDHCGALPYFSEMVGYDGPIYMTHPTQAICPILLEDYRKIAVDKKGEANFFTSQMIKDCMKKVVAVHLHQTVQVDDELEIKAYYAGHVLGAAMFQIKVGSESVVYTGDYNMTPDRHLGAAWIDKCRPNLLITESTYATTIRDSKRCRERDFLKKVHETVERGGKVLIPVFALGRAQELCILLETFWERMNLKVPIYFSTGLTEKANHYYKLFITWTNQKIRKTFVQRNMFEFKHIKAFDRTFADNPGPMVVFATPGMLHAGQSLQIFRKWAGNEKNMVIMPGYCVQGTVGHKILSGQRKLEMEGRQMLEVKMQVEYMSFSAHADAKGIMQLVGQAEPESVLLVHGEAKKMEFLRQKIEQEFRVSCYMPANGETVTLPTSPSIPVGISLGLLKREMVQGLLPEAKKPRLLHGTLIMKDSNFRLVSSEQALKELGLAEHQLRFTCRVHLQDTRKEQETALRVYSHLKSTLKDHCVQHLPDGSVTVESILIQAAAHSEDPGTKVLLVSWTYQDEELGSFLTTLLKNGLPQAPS

Like-named read-outs stand apart in the source and are kept apart here. These are yes or no findings as the source states them, for the method shown. Binding seen in cells or lysates may run through a third protein. Some entries that bind do so weakly or less than the wild type. For some assays here: Where a sequence is shown, tags or fusion partners need not be part of it.

In experiment [1] the target is Ints1 (mouse (endogenous in NS5 NSCs)) (UniProt Q6P4S8). Briefly: co-IP; immunoprecipitation of endogenous proteins (Nipbl or Ints1 antibody) from NSC nuclear extract, western blot; Benzonase or ethidium bromide added as indicated; normal mouse IgG or rabbit anti-GFP as control. A general note: A western blot detects proteins with antibodies after separation by electrophoresis.

In another experiment the target is T1, V5-tagged Zfp609 (mouse) (UniProt Q8BZ47).
T1 sequence: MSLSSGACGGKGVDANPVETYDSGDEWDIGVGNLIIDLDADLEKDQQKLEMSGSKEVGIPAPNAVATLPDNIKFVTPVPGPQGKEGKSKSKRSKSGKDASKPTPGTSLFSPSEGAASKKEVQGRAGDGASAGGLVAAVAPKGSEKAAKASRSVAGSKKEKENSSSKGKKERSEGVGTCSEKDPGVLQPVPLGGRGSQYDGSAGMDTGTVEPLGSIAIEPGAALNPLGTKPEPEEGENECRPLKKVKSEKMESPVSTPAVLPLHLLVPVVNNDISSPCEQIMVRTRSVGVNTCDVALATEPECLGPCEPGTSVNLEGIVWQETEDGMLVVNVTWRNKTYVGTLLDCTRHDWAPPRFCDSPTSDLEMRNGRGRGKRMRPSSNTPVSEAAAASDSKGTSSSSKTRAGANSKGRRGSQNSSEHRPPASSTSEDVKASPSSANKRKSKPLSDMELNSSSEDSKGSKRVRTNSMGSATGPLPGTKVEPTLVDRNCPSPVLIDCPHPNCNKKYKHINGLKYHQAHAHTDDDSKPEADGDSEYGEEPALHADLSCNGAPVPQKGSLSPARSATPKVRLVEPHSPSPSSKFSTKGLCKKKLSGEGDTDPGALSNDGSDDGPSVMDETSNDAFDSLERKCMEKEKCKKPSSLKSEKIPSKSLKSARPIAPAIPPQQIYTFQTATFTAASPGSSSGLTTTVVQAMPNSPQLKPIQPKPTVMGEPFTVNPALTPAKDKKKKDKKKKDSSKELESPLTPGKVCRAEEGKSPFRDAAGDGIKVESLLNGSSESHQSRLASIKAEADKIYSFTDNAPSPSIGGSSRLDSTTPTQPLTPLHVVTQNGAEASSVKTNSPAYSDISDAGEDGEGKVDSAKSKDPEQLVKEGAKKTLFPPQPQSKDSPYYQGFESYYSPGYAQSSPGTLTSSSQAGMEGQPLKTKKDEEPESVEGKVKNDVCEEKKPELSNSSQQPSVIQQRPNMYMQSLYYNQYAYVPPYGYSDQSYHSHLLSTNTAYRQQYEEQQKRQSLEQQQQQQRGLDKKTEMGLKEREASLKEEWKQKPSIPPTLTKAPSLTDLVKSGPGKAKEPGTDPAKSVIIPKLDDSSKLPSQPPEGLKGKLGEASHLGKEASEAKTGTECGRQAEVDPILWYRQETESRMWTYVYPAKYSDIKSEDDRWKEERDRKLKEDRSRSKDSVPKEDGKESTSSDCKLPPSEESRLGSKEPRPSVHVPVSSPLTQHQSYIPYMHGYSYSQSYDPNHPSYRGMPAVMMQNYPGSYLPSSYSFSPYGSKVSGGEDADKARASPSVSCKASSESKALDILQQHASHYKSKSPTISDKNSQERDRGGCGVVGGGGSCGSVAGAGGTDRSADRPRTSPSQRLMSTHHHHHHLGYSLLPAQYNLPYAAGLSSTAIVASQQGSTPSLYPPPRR
Briefly: co-IP; V5 immunoprecipitates from nuclear extract of Zfp609-V5-expressing NSCs, western blot; Benzonase or ethidium bromide added as indicated; normal mouse IgG or control NSC extract as control.

For experiment [2], the target named is Nipbl (mouse (endogenous in NS5 NSCs)) (UniProt Q6KCD5). Briefly: co-IP; immunoprecipitation of endogenous proteins (Nipbl or Ints1 antibody) from NSC nuclear extract, western blot; Benzonase or ethidium bromide added as indicated; normal mouse IgG or rabbit anti-GFP as control.
The target in experiment [3] is Ints1 (mouse (endogenous in NS5 NSCs)) (UniProt Q6P4S8). The experiment is described as above. The source holds these as a separate data set.

Turning to Cpsf3l (from UniProt Q9CWS4 1-600), the binding entry in experiment [1] is “binds”.

For the molecule Nipbl (from UniProt Q6KCD5 1-2798), the binding result (in the experiment with V5-tagged Zfp609 (mouse); in experiment [1]) was “binds” in each case. In the case of Ints1 (from UniProt Q6P4S8 1-2195), in the experiment with V5-tagged Zfp609 (mouse), the binding entry is listed as “binds”.

B1: Smc1a (protein, UniProt Q9CU62 1-1233)
chain: MGFLKLIEIENFKSYKGRQIIGPFQRFTAIIGPNGSGKSNLMDAISFVLGEKTSNLRVKTLRDLIHGAPVGKPAANRAFVSMVYSEEGAEDRTFARVIVGGSSEYKINNKVVQLHEYSEELEKLGILIKARNFLVFQGAVESIAMKNPKERTALFEEISRSGELAQEYDKRKKEMVKAEEDTQFNYHRKKNIAAERKEAKQEKEEADRYQRLKDEVVRAQVQLQLFKLYHNEVEIEKLNKELASKNKEIEKDKKRMDKVEDELKEKKKELGKMMREQQQIEKEIKEKDSELNQKRPQYIKAKENTSHKIKKLEAAKKSLQNAQKHYKKRKGDMDELEKEMLSVEKARQEFEERMEEESQSQGRDLTLEENQVKKYHRLKEEASKRAATLAQELEKFNRDQKADQDRLDLEERKKVETEAKIKQKLREIEENQKRIEKLEEYITTSKQSLEEQKKLEGELTEEVEMAKRRIDEINKELNQVMEQLGDARIDRQESSRQQRKAEIMESIKRLYPGSVYGRLIDLCQPTQKKYQIAVTKVLGKNMDAIIVDSEKTGRDCIQYIKEQRGEPETFLPLDYLEVKPTDEKLRELKGAKLVIDVIRYEPPHIKKALQYACGNALVCDNVEDARRIAFGGHQRHKTVALDGTLFQKSGVISGGASDLKAKARRWDEKAVDKLKEKKERLTEELKEQMKAKRKEAELRQVQSQAHGLQMRLKYSQSDLEQTKTRHLALNLQEKSKLESELANFGPRINDIKRIIQSREREMKDLKEKMNQVEDEVFEEFCREIGVRNIREFEEEKVKRQNEIAKKRLEFENQKTRLGIQLDFEKNQLKEDQDKVHMWEQTVKKDENEIEKLKKEEQRHMKIIDETMAQLQDLKNQHLAKKSEVNDKNHEMEEIRKKLGGANKEMTHLQKEVTAIETKLEQKRSDRHNLLQACKMQDIKLPLSKGTMDDISQEEGSSQGEESVSGSQRTSSIYAREALIEIDYGDLCEDLKDAQAEEEIKQEMNTLQQKLNEQQSVLQRIAAPNMKAMEKLESVRDKFQETSDEFEAARKRAKKAKQAFEQIKKERFDRFNACFESVATNIDEIYKALSRNSSAQAFLGPENPEEPYLDGINYNCVAPGKRFRPMDNLSGGEKTVAALALLFAIHSYKPAPFFVLDEIDAALDNTNIGKVANYIKEQSTCNFQAIVISLKEEFYTKAESLIGVYPEQGDCVISKVLTFDLTKYPDANPNPNEQ
B1: the binding result was “binds” with V5-tagged Zfp609 (mouse) and “binds weakly” in experiment [2].

B2: Zfp609 (endogenous) (protein, UniProt Q8BZ47 1-1413)
chain: T1 sequence
Consider B2, for which the binding entry in experiment [3] and in experiment [2] was “binds” in each case.
